# Data as given in the supplement of paper PMC10849652.
# By UniProt entry, the sequences of proteins in these tests, tags left out. Where a name states a change or a piece, a line headed by the entry shows the natural chain unless it says otherwise.
# UniProt Q9UJW0, whole entry, looked up: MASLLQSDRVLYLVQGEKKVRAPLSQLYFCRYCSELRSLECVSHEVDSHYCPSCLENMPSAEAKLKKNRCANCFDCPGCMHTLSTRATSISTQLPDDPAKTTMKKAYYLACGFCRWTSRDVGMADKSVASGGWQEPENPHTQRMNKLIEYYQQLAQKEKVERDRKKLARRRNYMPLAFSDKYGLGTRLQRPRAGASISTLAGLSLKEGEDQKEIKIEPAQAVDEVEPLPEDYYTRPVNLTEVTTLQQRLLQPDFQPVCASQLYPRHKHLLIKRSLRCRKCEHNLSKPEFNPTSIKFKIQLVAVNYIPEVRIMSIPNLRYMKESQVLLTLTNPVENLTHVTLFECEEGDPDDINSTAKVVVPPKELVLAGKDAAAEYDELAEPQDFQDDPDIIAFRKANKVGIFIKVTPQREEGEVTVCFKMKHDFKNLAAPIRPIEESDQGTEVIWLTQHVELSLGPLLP
# UniProt Q9P013: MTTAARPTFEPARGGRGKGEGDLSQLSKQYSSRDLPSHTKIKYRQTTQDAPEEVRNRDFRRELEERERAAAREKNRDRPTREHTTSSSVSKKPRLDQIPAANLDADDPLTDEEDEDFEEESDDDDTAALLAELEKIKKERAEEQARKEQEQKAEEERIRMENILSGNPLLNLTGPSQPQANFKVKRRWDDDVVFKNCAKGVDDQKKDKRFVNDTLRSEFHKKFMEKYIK
# UniProt P35221: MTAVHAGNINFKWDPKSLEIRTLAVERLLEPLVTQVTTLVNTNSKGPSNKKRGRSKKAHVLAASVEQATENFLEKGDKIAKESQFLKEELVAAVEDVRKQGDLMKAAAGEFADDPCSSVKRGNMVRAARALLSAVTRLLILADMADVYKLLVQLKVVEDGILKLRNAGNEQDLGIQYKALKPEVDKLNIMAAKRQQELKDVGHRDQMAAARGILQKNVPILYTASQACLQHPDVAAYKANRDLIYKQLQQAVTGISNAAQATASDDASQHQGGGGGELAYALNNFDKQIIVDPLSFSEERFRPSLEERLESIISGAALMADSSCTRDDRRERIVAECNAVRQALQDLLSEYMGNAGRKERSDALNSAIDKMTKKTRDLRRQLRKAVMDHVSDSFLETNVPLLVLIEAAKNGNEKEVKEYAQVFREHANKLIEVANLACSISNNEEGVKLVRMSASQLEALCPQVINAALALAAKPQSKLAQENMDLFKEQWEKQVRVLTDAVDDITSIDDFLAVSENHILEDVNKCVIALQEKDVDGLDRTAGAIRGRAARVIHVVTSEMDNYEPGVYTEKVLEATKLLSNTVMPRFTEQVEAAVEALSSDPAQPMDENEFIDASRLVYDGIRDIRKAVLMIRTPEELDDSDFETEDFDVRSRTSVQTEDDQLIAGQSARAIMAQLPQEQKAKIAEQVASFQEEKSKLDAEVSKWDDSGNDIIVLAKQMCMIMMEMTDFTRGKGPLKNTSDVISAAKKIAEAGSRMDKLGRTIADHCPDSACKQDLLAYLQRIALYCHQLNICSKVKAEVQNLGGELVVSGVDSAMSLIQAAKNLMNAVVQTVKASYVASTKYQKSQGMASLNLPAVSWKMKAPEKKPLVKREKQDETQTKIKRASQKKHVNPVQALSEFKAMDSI
# UniProt Q96C57: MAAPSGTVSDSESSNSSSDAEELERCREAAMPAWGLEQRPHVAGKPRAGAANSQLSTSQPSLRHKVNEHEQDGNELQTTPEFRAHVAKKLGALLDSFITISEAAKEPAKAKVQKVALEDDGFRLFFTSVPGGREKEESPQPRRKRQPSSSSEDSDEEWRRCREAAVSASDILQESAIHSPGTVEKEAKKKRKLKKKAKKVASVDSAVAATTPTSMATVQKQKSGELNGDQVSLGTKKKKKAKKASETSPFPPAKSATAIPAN
# UniProt Q16850: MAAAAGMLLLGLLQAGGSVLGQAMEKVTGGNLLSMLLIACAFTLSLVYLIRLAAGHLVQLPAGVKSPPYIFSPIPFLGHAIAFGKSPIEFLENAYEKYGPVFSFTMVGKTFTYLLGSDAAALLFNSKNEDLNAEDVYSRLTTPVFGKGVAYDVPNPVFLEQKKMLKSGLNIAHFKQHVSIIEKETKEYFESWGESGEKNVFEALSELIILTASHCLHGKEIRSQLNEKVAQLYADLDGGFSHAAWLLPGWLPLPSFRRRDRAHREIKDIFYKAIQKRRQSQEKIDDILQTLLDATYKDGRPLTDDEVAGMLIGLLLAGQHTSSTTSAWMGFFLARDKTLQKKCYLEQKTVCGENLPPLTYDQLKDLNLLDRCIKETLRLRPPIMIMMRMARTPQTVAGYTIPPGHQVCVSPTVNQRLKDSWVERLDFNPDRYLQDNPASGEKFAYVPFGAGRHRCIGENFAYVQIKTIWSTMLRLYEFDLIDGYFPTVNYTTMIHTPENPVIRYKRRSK
# UniProt Q14203, whole entry, looked up: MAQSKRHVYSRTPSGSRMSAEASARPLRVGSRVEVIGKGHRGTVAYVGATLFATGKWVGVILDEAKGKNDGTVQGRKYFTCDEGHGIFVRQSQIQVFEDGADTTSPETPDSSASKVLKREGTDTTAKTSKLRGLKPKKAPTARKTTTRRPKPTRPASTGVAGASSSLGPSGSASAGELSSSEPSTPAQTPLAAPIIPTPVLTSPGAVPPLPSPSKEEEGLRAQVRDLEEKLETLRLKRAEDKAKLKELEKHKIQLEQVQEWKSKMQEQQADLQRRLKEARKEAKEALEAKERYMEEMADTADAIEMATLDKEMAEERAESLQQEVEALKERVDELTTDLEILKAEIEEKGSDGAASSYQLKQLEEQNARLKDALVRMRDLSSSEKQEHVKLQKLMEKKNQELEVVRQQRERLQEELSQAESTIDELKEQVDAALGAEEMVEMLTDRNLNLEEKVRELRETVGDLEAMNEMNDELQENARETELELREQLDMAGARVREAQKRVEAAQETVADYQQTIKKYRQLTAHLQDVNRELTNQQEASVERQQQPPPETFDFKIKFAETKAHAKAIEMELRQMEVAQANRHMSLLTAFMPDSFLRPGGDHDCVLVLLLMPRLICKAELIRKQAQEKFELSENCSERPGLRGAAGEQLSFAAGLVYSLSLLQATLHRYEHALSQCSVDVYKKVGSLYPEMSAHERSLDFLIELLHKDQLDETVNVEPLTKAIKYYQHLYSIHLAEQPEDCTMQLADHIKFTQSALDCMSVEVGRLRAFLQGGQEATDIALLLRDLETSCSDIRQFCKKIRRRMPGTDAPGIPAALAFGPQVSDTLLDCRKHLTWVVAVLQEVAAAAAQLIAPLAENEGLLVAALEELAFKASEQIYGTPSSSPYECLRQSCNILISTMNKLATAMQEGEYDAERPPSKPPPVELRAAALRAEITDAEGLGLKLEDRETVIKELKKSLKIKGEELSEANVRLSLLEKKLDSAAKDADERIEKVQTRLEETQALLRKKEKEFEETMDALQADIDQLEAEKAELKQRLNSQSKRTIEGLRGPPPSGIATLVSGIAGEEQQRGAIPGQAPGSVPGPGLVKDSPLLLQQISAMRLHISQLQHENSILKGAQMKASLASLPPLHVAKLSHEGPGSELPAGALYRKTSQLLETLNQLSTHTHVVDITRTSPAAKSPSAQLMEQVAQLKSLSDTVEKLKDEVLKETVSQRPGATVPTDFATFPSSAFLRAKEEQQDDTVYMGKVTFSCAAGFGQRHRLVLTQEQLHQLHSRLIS
# UniProt Q9UBR2: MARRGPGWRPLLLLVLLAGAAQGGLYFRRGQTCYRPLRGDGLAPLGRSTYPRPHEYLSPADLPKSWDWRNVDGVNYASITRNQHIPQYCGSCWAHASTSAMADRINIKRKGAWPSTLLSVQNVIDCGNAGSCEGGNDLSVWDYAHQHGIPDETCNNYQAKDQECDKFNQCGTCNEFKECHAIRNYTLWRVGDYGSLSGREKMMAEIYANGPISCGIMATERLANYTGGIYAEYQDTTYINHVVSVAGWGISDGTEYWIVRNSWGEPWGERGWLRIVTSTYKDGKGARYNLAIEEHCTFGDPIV
# UniProt P17812: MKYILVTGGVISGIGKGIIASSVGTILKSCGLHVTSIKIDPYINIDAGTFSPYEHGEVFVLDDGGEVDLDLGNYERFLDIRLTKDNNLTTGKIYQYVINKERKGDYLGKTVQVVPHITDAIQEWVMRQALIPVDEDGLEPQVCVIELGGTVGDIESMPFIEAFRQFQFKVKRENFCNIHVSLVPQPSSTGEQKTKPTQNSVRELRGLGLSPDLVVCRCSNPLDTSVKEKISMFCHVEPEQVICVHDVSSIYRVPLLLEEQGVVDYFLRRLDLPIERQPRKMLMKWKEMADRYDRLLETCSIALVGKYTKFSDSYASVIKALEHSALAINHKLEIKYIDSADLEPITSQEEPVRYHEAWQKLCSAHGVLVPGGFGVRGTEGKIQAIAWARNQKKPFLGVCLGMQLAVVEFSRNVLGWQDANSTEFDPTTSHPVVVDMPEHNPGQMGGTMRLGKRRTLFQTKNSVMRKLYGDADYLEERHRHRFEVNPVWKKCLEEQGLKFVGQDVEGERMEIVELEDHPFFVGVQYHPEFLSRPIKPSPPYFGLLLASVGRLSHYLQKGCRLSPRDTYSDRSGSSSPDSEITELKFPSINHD
# UniProt Q8TB03: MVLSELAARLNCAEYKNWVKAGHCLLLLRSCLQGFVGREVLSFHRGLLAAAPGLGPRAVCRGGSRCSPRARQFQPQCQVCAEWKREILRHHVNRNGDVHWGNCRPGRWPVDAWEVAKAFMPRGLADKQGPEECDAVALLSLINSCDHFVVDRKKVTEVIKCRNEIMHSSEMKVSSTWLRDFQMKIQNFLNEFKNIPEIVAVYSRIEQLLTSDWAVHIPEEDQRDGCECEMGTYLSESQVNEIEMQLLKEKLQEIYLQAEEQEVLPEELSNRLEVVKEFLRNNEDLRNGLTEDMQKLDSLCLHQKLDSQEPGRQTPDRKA
# UniProt Q5TAQ9: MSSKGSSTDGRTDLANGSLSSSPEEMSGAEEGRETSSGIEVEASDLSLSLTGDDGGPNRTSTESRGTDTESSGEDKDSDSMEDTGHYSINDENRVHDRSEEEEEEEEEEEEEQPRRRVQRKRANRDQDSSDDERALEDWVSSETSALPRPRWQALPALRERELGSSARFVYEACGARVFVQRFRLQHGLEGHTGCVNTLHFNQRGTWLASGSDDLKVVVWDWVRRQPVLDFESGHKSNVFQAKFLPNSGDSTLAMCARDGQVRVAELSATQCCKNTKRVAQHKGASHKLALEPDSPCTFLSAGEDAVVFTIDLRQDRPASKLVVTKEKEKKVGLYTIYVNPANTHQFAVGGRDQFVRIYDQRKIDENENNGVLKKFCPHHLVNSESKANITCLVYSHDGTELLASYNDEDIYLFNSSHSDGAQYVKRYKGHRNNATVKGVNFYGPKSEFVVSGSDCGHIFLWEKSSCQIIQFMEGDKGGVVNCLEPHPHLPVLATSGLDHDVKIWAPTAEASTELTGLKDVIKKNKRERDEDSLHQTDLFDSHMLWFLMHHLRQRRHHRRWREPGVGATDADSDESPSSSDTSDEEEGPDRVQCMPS
# UniProt P51397: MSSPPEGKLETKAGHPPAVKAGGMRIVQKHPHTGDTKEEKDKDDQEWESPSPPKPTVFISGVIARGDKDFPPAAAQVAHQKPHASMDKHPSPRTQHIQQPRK
# UniProt Q01459: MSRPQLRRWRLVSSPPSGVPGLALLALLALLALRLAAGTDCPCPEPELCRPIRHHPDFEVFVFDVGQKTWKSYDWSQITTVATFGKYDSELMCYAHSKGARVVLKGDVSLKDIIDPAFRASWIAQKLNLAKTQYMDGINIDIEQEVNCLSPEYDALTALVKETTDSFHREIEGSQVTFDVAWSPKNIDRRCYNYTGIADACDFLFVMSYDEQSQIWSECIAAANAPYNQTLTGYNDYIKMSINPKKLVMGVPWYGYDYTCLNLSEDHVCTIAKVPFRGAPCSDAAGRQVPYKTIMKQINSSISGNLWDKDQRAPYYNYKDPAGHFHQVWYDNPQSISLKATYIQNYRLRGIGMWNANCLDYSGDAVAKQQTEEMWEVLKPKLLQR
# UniProt Q66K64, whole entry, looked up: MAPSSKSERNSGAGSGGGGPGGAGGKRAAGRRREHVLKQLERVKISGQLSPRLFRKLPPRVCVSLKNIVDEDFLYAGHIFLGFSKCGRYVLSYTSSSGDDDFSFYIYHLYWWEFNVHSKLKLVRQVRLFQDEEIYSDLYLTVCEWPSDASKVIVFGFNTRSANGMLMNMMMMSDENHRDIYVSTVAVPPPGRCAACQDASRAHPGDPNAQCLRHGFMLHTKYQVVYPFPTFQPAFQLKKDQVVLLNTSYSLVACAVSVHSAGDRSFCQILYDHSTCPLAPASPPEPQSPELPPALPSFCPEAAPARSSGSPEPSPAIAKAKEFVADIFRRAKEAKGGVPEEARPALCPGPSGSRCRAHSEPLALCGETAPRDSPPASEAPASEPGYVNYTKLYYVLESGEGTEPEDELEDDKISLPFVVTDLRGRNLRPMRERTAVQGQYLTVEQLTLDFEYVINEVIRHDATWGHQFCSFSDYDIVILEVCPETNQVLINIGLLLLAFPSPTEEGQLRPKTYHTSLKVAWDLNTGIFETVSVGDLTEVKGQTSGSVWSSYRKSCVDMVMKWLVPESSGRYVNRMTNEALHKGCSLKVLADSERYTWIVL
# This is one part of the list. Residues, ends and D or L forms follow the SMILES beside them. *: point of attachment. Cbz = O=C(OCc1ccccc1)*
# Key:
# Assay in all cases: log2 fold change, soluble protein after heating vs DMSO (PISA); higher = thermal stabilisation; K562 cells, 10 uM, 30 min; active = over 0.2 and 3.5 SD of the protein, either way, in both replicates (recomputed)
# [1] = compound: C#Cc1cccc(Nc2ncnc3cc(OCCOC)c(OCCOC)cc23)c1 [erlotinib]
# Method in brief: (§1)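 Quantification of soluble protein used TMTpro 16plex LC-MS/MS, with channel sums equalised. Samples were the supernatant after 21,000xg for 90 min of pooled aliquots from K562 cells (2×10^6 cells/mL) treated with 10 μM compound for 30 min, heated for 3 min over 48°C-58°C, and extracted in PBS with 0.5% NP-40 at 4°C. Values, from duplicates, describe thermal stability against control samples on a log2 fold-change scale.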
# [2] = compound: C/C(=N\NC(=O)C1=CC(=CC=C1)S(=O)(=O)N2CCOCC2)/C3=C(C=CC(=C3)Cl)O
# Method in brief: as §1
# [3] = compound: C1=CC(=C(C=C1Cl)C2=NC3=NC=CN=C3C(=N2)NC4=CC=NC=C4)F
# Method in brief: as §1
# [4] = compound: C1=CC(=CC=C1C2=NC3=C(N2)C=C(C=C3)C(=O)N)OC4=CC=C(C=C4)Cl
# Method in brief: as §1
# [5] = compound: C1=CC2=C(C=CC(=C2)/C=C\3/C(=O)NC(=NCC4=CC=CS4)S3)N=C1
# Method in brief: as §1
# [6] = compound: C1=CC2=NC=CN=C2C=C1/C=C/3\C(=O)NC(=O)S3
# Method in brief: as §1
# [7] = compound: C1=CC=C(C=C1)C2=NC(=C(N2)C3=CC=NC=C3)C4=CC(=C(C=C4)Cl)O
# Method in brief: as §1
# [8] = compound: C1=CC=C2C(=C1)C3=NNC4=CC=CC(=C43)C2=O
# Method in brief: as §1
# [9] = compound: C1CCN(C1)C(=O)NC2=CC=CC(=C2)NC3=NC=C(C(=N3)NCCC4=CN=CN4)Br
# Method in brief: as §1
# [10] = compound: C1CN(CCC1(CC2=CC=C(C=C2)Cl)N)C3=NC=NC4=C3C=CN4
# Method in brief: as §1
# [11] = compound: C1COCCN1CCN2C3=CC=CC=C3N=C2NC(=O)C4=CC(=CC=C4)[N+](=O)[O-] [IRAK-1-4 Inhibitor I]
# Method in brief: as §1
# [12] = compound: C=CC(=O)N1CCC[C@@H](n2nc(-c3ccc(Oc4ccccc4)cc3)c3c(N)ncnc32)C1 [ibrutinib]
# Method in brief: as §1
# [13] = compound: CC(=O)c1cnc2ccc(-c3cc(Cl)c(O)c(Cl)c3)nc2c1N[C@H]1CC[C@H](CN(C)C)CC1
# Method in brief: as §1
# [14] = compound: CC(C)(C)Cn1c(N)nc2ccc(-c3[nH]c(C(C)(C)C)nc3-c3ccc(F)cc3)nc21 [ralimetinib]
# Method in brief: as §1
# [15] = compound: CC(C)(O)CC(=O)NCCn1ccc2ncnc(Nc3ccc(Oc4cccc(C(F)(F)F)c4)c(Cl)c3)c21
# Method in brief: as §1
# [16] = compound: CC(C)C1=C2N=C(C=C(N2N=C1)NCC3=CC=CC=C3)NCCCCCCN
# Method in brief: as §1
# [17] = compound: CC(C)C[C@@H](C=O)NC(=O)[C@H](CC(C)C)NC(=O)[C@H](CC(C)C)NC(=O)OCc1ccccc1
# Method in brief: as §1
# [18] = compound: CC(C)N(C[C@H]1O[C@@H](n2cnc3c(N)ncnc32)[C@H](O)[C@@H]1O)[C@H]1C[C@@H](CCc2nc3cc(C(C)(C)C)ccc3[nH]2)C1 [pinometostat]
# Method in brief: as §1
# [19] = compound: CC1=C(C(CC(=O)N1)C2=CC=C(C=C2)C(F)(F)F)C(=O)NC3=C(C=C4C(=C3)C=NN4)F
# Method in brief: as §1
# [20] = compound: CC1=C(C2=C(C=C1)C(=O)C3=CC=CC=C3N2CCCN)C
# Method in brief: as §1
Target,log2 fold change [1],log2 fold change [2],log2 fold change [3],log2 fold change [4],log2 fold change [5],log2 fold change [6],log2 fold change [7],log2 fold change [8],log2 fold change [9],log2 fold change [10],log2 fold change [11],log2 fold change [12],log2 fold change [13],log2 fold change [14],log2 fold change [15],log2 fold change [16],log2 fold change [17],log2 fold change [18],log2 fold change [19],log2 fold change [20]
DCTN4 (UniProt Q9UJW0),inactive: -0.028,inactive: 0.024,inactive: -0.035,inactive: 0.013,inactive: -0.043,inactive: -0.011,inactive: -0.044,inactive: -0.022,inactive: -0.043,inactive: -0.008,inactive: 0.015,inactive: -0.006,inactive: 0.03,inactive: 0.004,inactive: 0.032,inactive: 0.08,inactive: 0.049,inactive: -0.002,inactive: 0.019,inactive: 0.007
CWC15 (UniProt Q9P013),inactive: -0.01,inactive: -0.032,inactive: -0.004,inactive: 0.009,inactive: 0.006,inactive: 0.056,inactive: -0.025,inactive: -0.038,inactive: 0.013,inactive: -0.019,inactive: 0.044,inactive: 0.058,inactive: 0.135,inactive: -0.112,inactive: 0.059,inactive: 0.095,inactive: 0.059,inactive: -0.022,inactive: 0.022,inactive: 0.044
CUL4A (UniProt Q13619),inactive: 0.014,inactive: 0.031,inactive: 0.044,inactive: -0.016,inactive: 0.05,inactive: -0.01,inactive: 0.029,inactive: -0.007,inactive: -0.009,inactive: 0.024,inactive: -0.004,inactive: -0.016,inactive: -0.007,inactive: 0.013,inactive: -0.048,inactive: -0.012,inactive: -0.04,inactive: -0.038,inactive: 0.01,inactive: -0.008
CTNNA1 isoform 2 (UniProt P35221),inactive: -0.024,inactive: 0.01,inactive: 0.047,inactive: 0.017,inactive: 0.017,inactive: -0.001,inactive: 0.019,inactive: -0.004,inactive: -0.025,inactive: 0.048,inactive: 0.062,inactive: 0.014,inactive: -0.039,inactive: 0.029,inactive: -0.05,inactive: 0.046,inactive: 0.045,inactive: 0.016,inactive: 0.047,inactive: -0.027
CUSTOS (UniProt Q96C57),inactive: -0.005,inactive: -0.025,inactive: -0.085,inactive: 0.036,inactive: -0.025,inactive: 0.026,inactive: -0.057,inactive: -0.01,inactive: -0.004,inactive: 0.011,inactive: 0.042,inactive: 0.052,inactive: 0.017,inactive: 0.002,inactive: 0.015,inactive: 0.075,inactive: -0.031,inactive: -0.017,inactive: 0.006,inactive: -0.007
CYP51A1 (UniProt Q16850),inactive: -0.09,inactive: 0.019,inactive: -0.248,inactive: -0.002,inactive: 0.007,inactive: 0.018,inactive: -0.096,inactive: 0.089,inactive: 0.014,inactive: 0.137,inactive: -0.129,inactive: 0.039,inactive: -0.028,inactive: 0.064,inactive: 0.245,active: 0.782,inactive: 0.07,inactive: 0.045,–,inactive: -0.006
DCTN1 isoform 4 (UniProt Q14203),inactive: 0.04,inactive: 0.031,inactive: -0.053,inactive: -0.033,inactive: 0.037,inactive: -0.009,inactive: -0.023,inactive: 0.05,inactive: 0.046,inactive: -0.072,inactive: -0.101,inactive: -0.02,inactive: -0.001,inactive: 0.114,inactive: -0.086,active: -0.303,inactive: 0.07,inactive: 0.138,–,inactive: 0.019
CXorf56 (UniProt Q9H5V9),inactive: 0.031,inactive: -0.042,inactive: -0.029,inactive: -0.003,inactive: -0.004,inactive: 0.004,inactive: 0.023,inactive: 0.044,inactive: -0.039,inactive: -0.002,inactive: -0.026,inactive: -0.063,inactive: -0.026,inactive: 0.03,inactive: 0.028,inactive: 0.065,inactive: 0.045,inactive: -0.023,inactive: -0.024,inactive: 0.087
D2HGDH (UniProt Q8N465),inactive: 0.002,inactive: -0.151,inactive: -0.019,inactive: 0.048,inactive: 0.016,inactive: 0.056,inactive: 0.052,inactive: 0.116,inactive: -0.009,inactive: 0.105,inactive: -0.093,inactive: -0.027,inactive: -0.006,inactive: -0.122,inactive: -0.04,inactive: 0.089,inactive: -0.05,inactive: -0.022,inactive: -0.016,inactive: -0.047
CTSZ (UniProt Q9UBR2),inactive: 0.053,inactive: -0.025,inactive: 0.027,inactive: -0.047,inactive: -0.013,inactive: 0.023,inactive: -0.017,inactive: 0.073,inactive: 0.057,inactive: 0.09,inactive: 0.008,inactive: -0.02,inactive: 0.053,inactive: -0.062,inactive: 0,active: -0.395,inactive: 0.082,inactive: -0.076,–,inactive: -0.036
CTPS1 (UniProt P17812),inactive: 0.006,inactive: 0.006,inactive: 0.072,inactive: 0.007,inactive: 0.005,inactive: 0.019,inactive: -0.024,inactive: -0.013,inactive: 0.02,inactive: 0.05,inactive: 0.045,inactive: 0.017,inactive: 0.019,inactive: -0.033,inactive: -0.021,inactive: 0.041,inactive: -0.014,inactive: -0.032,inactive: 0.033,inactive: 0.018
CXorf38 (UniProt Q8TB03),inactive: -0.093,inactive: 0.029,inactive: -0.007,inactive: 0.012,inactive: 0.05,inactive: 0.05,inactive: -0.054,inactive: 0.061,inactive: -0.028,inactive: 0.033,inactive: 0.027,inactive: -0.037,inactive: -0.037,inactive: -0.044,inactive: -0.053,inactive: -0.01,inactive: 0.012,inactive: 0.008,inactive: -0.008,inactive: 0.024
DCAF8 (UniProt Q5TAQ9),inactive: -0.041,inactive: -0.017,inactive: 0.012,inactive: 0.062,inactive: 0.024,inactive: 0.002,inactive: 0.006,inactive: 0.073,inactive: -0.015,inactive: 0.001,inactive: -0.032,inactive: -0.005,inactive: -0.024,inactive: 0.044,inactive: 0.068,inactive: -0.023,inactive: 0.005,inactive: 0.047,inactive: 0.057,inactive: -0.125
DAP (UniProt P51397),inactive: 0.01,inactive: -0.036,inactive: 0.075,inactive: 0.007,inactive: -0.003,inactive: 0.057,inactive: 0.003,inactive: -0.026,inactive: 0.032,inactive: 0.024,inactive: -0.012,inactive: -0.031,inactive: 0.04,inactive: -0.101,inactive: -0.024,inactive: 0.134,inactive: 0.011,inactive: -0.094,inactive: 0.023,inactive: -0.006
CTBS (UniProt Q01459),inactive: 0.037,inactive: -0.008,inactive: -0.1,inactive: -0.023,inactive: 0.039,inactive: 0.013,inactive: -0.089,inactive: -0.002,inactive: -0.083,inactive: 0.048,inactive: 0.073,inactive: 0.067,inactive: -0.082,inactive: -0.035,inactive: 0.018,inactive: -0.151,inactive: -0.028,inactive: -0.009,–,inactive: -0.061
DCAF15 (UniProt Q66K64),inactive: 0.065,inactive: 0.296,inactive: -0.046,inactive: -0.022,inactive: -0.167,inactive: 0.067,inactive: -0.112,inactive: -0.041,inactive: -0.105,inactive: 0.079,inactive: 0.011,inactive: -0.065,inactive: 0.07,inactive: -0.049,inactive: 0.007,inactive: 0.089,inactive: 0.117,inactive: 0.033,inactive: 0.027,inactive: 0.085

# Shown bar-delimited: part of the list above
Target | log2 fold change [1] | log2 fold change [2] | log2 fold change [3] | log2 fold change [4] | log2 fold change [5] | log2 fold change [6] | log2 fold change [7] | log2 fold change [8] | log2 fold change [9] | log2 fold change [10] | log2 fold change [11] | log2 fold change [12] | log2 fold change [13] | log2 fold change [14] | log2 fold change [15] | log2 fold change [16] | log2 fold change [17] | log2 fold change [18] | log2 fold change [19] | log2 fold change [20]
CXorf56 (UniProt Q9H5V9) | inactive: 0.031 | inactive: -0.042 | inactive: -0.029 | inactive: -0.003 | inactive: -0.004 | inactive: 0.004 | inactive: 0.023 | inactive: 0.044 | inactive: -0.039 | inactive: -0.002 | inactive: -0.026 | inactive: -0.063 | inactive: -0.026 | inactive: 0.03 | inactive: 0.028 | inactive: 0.065 | inactive: 0.045 | inactive: -0.023 | inactive: -0.024 | inactive: 0.087
DCAF8 (UniProt Q5TAQ9) | inactive: -0.041 | inactive: -0.017 | inactive: 0.012 | inactive: 0.062 | inactive: 0.024 | inactive: 0.002 | inactive: 0.006 | inactive: 0.073 | inactive: -0.015 | inactive: 0.001 | inactive: -0.032 | inactive: -0.005 | inactive: -0.024 | inactive: 0.044 | inactive: 0.068 | inactive: -0.023 | inactive: 0.005 | inactive: 0.047 | inactive: 0.057 | inactive: -0.125
